Measurements from patent US4865619A, “Use, as a coupler, of 2,4-diamino-1,3-dimethoxybenzene or one of its salts, in combination with oxidation dye precursors, for dyeing human hair, hair dyeing composition containing the said coupler and process for preparing the said coupler” (L'Oreal, priority 1987, dated 1989).

Test: coloration of hair by the coupler in combination with oxidation dye precursors, oxidizing alkaline medium
Design: species or system human
Procedure: According to this process, the dyeing composition described above is mixed at the time of use with a sufficient quantity of an oxidizing solution, and the mixture obtained is then applied on the hair.
The oxidizing solution contains oxidizing agents such as hydrogen peroxide, urea peroxide or persalts such as ammonium persulphate. "20 volumes" hydrogen peroxide solution is preferably used.
The mixture obtained is applied on the hair; it is left in place for 10 to 40 minutes, preferably 15 to 30 minutes, after which the hair is rinsed, washed with shampoo, rinsed again and dried.

Structure (SMILES): COc1ccc(N)c(OC)c1N [2,4-diamino-1,3-dimethoxybenzene]
- coloration imparted to hair (in combination with p-aminophenols): red colorations
- coloration imparted to hair (in combination with p-phenylenediamines): strong blue colorations that are more or less rich in green or purple
